Here are results for one molecule from paper PMC6168554.

Chains of the proteins cited; added tags and fusions are not shown. Lines headed by an entry give the natural chain unless they say otherwise; changes in a name come on top.
UniProt Q5NC57: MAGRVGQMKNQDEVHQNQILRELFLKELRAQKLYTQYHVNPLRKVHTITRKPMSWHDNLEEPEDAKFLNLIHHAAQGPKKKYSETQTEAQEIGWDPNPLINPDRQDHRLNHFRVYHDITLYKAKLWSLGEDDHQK

The target of this assay is tandem StrepII-Flag-tagged FAM183b (4 exon variant) (mouse) (UniProt Q5NC57). Description: affinity purification with mass spectrometry; N- and C-terminally tandem StrepII-Flag-tagged FAM183b transiently expressed in HEK293T cells; FAM183b complexes isolated and analysed by LC-MS/MS.

Results are given in words; binding and its absence hold for the method and conditions named. In cells and extracts the contact can be indirect. These calls come from enrichment with a bait or labelling near it, and not all partners need be listed.

B1: NUP93 (endogenous, HEK293T) (protein, UniProt Q8N1F7 1-819)
chain: MDTEGFGELLQQAEQLAAETEGISELPHVERNLQEIQQAGERLRSRTLTRTSQETADVKASVLLGSRGLDISHISQRLESLSAATTFEPLEPVKDTDIQGFLKNEKDNALLSAIEESRKRTFGMAEEYHRESMLVEWEQVKQRILHTLLASGEDALDFTQESEPSYISDVGPPGRSSLDNIEMAYARQIYIYNEKIVNGHLQPNLVDLCASVAELDDKSISDMWTMVKQMTDVLLTPATDALKNRSSVEVRMEFVRQALAYLEQSYKNYTLVTVFGNLHQAQLGGVPGTYQLVRSFLNIKLPAPLPGLQDGEVEGHPVWALIYYCMRCGDLLAASQVVNRAQHQLGEFKTWFQEYMNSKDRRLSPATENKLRLHYRRALRNNTDPYKRAVYCIIGRCDVTDNQSEVADKTEDYLWLKLNQVCFDDDGTSSPQDRLTLSQFQKQLLEDYGESHFTVNQQPFLYFQVLFLTAQFEAAVAFLFRMERLRCHAVHVALVLFELKLLLKSSGQSAQLLSHEPGDPPCLRRLNFVRLLMLYTRKFESTDPREALQYFYFLRDEKDSQGENMFLRCVSELVIESREFDMILGKLENDGSRKPGVIDKFTSDTKPIINKVASVAENKGLFEEAAKLYDLAKNADKVLELMNKLLSPVVPQISAPQSNKERLKNMALSIAERYRAQGISANKFVDSTFYLLLDLITFFDEYHSGHIDRAFDIIERLKLVPLNQESVEERVAAFRNFSDEIRHNLSEVLLATMNILFTQFKRLKGTSPSSSSRPQRVIEDRDSQLRSQARTLITFAGMIPYRTSGDTNARLVQMEVLMN
On to B1, for which the binding result is “binds”.
